Results are given in words; binding and its absence hold for the method and conditions named. In cells and extracts the contact can be indirect. Some results given as binding are weak or reduced against the parent protein; the word gives no strength.

By UniProt entry, the sequences of proteins in these tests, tags left out. Where a name states a change or a piece, a line headed by the entry shows the natural chain unless it says otherwise.
UniProt O95613: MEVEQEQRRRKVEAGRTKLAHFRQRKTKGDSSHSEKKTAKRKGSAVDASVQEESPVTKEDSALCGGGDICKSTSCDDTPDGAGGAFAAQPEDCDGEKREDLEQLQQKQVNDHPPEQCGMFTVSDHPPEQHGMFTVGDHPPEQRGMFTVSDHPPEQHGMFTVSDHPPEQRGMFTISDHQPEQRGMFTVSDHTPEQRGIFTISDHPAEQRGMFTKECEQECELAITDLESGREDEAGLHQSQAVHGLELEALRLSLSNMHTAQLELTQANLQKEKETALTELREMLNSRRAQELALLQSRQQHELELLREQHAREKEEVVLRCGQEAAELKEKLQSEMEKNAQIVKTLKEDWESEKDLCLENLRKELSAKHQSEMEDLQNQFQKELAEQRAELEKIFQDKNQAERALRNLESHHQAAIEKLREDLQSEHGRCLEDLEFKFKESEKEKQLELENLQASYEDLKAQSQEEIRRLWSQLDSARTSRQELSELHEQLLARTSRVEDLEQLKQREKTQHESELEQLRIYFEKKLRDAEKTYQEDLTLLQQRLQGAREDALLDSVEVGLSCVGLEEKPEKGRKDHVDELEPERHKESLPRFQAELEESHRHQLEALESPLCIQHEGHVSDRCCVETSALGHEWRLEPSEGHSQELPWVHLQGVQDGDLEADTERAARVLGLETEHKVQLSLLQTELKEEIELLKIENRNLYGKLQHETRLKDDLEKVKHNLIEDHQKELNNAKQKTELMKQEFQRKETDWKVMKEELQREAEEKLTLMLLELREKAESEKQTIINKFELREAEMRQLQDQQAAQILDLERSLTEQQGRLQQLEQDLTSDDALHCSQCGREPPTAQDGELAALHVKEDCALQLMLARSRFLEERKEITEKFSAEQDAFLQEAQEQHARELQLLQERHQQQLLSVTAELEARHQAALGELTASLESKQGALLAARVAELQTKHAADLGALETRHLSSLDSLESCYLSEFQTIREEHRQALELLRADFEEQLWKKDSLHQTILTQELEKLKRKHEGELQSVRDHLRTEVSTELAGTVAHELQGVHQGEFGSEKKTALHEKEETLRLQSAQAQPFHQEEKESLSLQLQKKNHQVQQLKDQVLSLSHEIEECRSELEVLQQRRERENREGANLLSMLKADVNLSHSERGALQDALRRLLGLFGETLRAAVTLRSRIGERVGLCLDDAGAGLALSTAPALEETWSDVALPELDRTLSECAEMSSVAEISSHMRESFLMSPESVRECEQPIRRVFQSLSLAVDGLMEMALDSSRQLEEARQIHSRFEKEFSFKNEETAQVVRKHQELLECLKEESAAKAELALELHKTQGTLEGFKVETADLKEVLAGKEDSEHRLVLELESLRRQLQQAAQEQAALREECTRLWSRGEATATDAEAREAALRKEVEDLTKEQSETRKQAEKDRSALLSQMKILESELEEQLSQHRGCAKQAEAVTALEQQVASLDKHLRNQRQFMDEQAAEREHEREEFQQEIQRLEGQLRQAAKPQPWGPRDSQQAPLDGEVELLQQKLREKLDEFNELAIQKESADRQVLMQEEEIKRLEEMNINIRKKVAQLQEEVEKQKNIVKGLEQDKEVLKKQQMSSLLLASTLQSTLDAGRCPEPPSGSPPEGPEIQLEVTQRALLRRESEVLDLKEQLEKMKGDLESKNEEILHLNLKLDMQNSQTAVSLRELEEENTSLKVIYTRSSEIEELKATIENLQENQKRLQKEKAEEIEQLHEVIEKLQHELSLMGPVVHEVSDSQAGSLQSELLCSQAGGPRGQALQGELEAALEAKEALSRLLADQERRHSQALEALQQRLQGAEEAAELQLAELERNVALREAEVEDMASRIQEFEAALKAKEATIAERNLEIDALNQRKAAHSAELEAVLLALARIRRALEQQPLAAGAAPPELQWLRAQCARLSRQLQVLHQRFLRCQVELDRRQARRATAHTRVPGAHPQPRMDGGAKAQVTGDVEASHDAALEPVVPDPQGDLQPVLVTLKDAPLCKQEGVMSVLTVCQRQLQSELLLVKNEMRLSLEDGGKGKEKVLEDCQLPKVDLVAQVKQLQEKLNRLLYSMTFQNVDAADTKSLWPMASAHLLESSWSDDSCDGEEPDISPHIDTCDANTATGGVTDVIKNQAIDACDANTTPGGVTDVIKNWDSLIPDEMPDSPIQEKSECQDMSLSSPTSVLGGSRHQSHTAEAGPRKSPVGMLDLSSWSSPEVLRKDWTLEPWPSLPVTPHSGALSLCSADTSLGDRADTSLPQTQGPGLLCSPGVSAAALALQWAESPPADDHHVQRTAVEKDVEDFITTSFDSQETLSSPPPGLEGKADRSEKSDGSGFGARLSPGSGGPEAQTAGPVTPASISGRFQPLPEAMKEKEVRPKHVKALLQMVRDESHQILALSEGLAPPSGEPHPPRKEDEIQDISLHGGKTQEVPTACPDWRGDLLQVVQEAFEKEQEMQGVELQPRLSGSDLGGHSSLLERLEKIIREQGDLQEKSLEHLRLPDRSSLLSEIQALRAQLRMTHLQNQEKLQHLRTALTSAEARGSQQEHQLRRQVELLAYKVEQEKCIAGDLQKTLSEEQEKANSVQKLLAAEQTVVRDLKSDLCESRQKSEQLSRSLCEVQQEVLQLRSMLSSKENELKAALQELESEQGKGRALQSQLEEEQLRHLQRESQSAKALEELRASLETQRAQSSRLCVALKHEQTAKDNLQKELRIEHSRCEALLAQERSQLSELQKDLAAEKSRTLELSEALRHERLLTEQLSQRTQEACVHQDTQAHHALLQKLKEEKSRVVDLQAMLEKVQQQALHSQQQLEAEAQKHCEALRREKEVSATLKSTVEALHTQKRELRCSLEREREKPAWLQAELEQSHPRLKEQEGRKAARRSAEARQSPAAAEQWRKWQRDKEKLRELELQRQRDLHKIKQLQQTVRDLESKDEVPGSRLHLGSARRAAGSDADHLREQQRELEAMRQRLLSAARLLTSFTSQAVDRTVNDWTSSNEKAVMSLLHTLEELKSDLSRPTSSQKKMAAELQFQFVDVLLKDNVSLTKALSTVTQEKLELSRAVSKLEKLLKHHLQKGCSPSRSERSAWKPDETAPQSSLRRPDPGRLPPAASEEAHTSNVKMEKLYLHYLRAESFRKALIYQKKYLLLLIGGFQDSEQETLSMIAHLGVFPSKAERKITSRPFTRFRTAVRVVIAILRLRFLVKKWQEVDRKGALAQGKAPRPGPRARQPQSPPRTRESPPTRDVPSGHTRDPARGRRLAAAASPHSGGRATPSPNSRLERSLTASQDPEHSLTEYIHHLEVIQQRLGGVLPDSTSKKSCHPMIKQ
UniProt Q96SN8: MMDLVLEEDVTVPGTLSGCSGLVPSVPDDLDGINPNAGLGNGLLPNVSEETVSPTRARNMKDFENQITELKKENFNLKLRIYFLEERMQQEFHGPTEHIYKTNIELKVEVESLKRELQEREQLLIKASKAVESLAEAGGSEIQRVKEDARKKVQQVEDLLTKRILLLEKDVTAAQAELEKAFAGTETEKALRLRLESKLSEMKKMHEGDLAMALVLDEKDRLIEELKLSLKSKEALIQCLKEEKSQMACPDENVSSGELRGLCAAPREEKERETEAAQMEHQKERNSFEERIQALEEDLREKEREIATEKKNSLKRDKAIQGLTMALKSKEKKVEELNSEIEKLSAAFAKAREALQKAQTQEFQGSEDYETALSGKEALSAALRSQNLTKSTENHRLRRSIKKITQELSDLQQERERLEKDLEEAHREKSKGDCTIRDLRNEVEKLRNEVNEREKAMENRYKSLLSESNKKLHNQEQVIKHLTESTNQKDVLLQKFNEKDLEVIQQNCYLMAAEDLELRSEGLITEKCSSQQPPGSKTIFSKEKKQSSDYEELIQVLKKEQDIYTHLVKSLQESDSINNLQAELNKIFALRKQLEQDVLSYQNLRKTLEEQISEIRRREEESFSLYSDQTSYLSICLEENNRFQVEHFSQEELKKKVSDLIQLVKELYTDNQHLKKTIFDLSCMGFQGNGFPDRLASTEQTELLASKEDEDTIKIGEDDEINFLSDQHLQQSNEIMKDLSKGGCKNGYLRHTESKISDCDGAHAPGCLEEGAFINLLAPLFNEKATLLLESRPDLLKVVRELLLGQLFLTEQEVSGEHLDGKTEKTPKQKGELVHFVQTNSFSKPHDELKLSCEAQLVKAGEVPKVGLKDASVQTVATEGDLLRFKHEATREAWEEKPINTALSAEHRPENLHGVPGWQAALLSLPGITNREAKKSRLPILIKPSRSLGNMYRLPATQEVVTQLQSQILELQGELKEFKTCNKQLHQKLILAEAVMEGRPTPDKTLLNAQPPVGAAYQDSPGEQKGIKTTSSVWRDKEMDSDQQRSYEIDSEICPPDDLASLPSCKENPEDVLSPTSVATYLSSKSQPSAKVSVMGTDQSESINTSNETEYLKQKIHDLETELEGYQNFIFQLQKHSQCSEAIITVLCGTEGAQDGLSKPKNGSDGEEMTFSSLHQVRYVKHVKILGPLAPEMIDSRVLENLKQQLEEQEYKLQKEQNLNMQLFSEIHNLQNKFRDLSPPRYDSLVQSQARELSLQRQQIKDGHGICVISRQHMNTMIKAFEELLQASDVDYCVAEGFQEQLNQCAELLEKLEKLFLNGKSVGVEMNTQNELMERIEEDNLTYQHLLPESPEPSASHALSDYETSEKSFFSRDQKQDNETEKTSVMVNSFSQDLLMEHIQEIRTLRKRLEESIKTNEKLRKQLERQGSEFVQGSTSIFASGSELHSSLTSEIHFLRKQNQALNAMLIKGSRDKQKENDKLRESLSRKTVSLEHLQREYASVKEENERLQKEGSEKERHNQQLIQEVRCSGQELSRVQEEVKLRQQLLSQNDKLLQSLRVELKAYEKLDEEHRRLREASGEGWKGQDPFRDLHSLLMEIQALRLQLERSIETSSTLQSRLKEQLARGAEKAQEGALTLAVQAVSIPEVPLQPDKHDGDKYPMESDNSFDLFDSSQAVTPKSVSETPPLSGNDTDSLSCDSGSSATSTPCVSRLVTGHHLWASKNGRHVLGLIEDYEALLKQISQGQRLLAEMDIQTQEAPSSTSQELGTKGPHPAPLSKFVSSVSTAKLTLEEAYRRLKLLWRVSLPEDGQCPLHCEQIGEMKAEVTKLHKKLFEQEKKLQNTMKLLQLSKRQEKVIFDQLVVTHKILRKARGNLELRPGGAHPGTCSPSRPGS

Assay [1] deals with FLAG-PCNT (wild type) (human) (UniProt O95613). The experiment in a line: co-IP; HEK293T cells transfected with FLAG-tagged constructs, STLC 16 h (mitotic); lysis in 25 mM Tris-HCl pH 7.4, 100 mM NaCl, 5 mM MgCl2, 5 mM NaF, 20 mM β-glycerophosphate, 0.5% NP-40; FLAG-M2 AffinityGel 1.5 h at 4°C; immunoblot of the endogenous partner. In general terms: A western blot detects proteins with antibodies after separation by electrophoresis.

Another assay addresses FLAG-PCNT^AA (human) (UniProt O95613). The assay is described as above.

With “CEP215 (endogenous) (from UniProt Q96SN8 1-1893)”, the binding result (in assay [1]; with FLAG-PCNT^AA (human)) was “binds” throughout.

(Values after publication PMC3899370.)
